Not every detail of the peptide structures is certain; ends, links or a residue may be inferred. Ends that are not written are not given here.
Columns and labels:
Assay type in all cases: cell-based, human
[1] = test system: Croft (EBV immortalized B cells); test: 51Cr release lysis of cells by MUC-1 peptide specific cytotoxic T cells; conditions: cells do not express MUC-1
[2] = test system: MCF-7 (breast cancer cells); test: 51Cr release lysis of tumor cells by MUC-1 peptide specific cytotoxic T cells; conditions: cells express HLA-A2 and MUC-1
[3] = test system: MZ1774-RCC (kidney cell carcinoma cells); test: as above
[4] = test system: Caki-2 (kidney cell carcinoma cells); test: as above; conditions: cells do not express HLA-A2
[5] = test system: K562 (pro-erythroblastic cells); test: 51Cr release lysis of cells by MUC-1 peptide specific cytotoxic T cells; conditions: cells do not express HLA-A2
[6] = test system: A-498 (kidney cell carcinoma cells); test: 51Cr release lysis of tumor cells by MUC-1 peptide specific cytotoxic T cells; conditions: cells express HLA-A2 and MUC-1
[7] = test system: SK-OV-3 (ovary cancer cells); test: as above; conditions: cells do not express HLA-A2

In the case of STAPPVHNV [SEQ ID NO: 1], the “lysis of Croft cells by T cells activated with the peptide” value [1] is reported as “not able to lyse”, the “lysis of MCF-7 cells by T cells activated with the peptide” value [2] is reported as “able to lyse” and the “lysis of MZ1774-RCC cells by T cells activated with the peptide” value ([3]; cells express HLA-A2 and MUC-1) is reported as “able to lyse”. For the same sequence, the “lysis of MZ1774-RCC cells pre-incubated with anti-HLA-A2 antibody by T cells activated with the peptide” value ([3]; target cells incubated before with 10 μg/ml monoclonal antibody BB7.2 against HLA-A2 for 30 minutes) was “could neither lyse”, the “lysis of Caki-2 cells by T cells activated with the peptide” value [4] was “not able to lyse” and the “lysis of K562 cells by T cells activated with the peptide” value [5] was “not able to lyse”. For the same sequence, the “lysis of A-498 cells by T cells activated with the peptide” value [6] was “able to lyse” and the “lysis of SK-OV-3 cells by T cells activated with the peptide” value [7] was “not able to lyse”.

— patent US7528224B1, “Peptide for triggering an immune reaction against tumor cells” (Immatics Biotechnologies GmbH, priority 1999, dated 2009)
